# Values of other authors in patent publication US8835432B2, “Heterocyclic compounds and their uses” (Amgen Inc., priority 2012, dated 2014).
# Where two headings read alike, the source gives them in different places. For at least one compound, name, drawing or mass did not settle the structure.
# Experiments:
# Conditions in all cases: cited from earlier work
# [1] = test system: neutrophil superoxide release
# [2] = test system: Class I PI 3-kinases
# [3] = test system: neutrophil migration
Structure (SMILES),superoxide release [1],IC50 ([2]; read-out: IC50 against each of the various Class I PI 3-kinases) [nM],neutrophil migration [3],IC50 ([2]; read-out: IC50 against each of these PI 3-kinases) [nM]
COC[C@H]1OC(=O)c2coc3c2[C@@]1(C)C1=C(C3=O)[C@@H]2CCC(=O)[C@@]2(C)C[C@H]1OC(C)=O [wortmannin],block,1 to 10,block,–
O=c1cc(N2CCOCC2)oc2c(-c3ccccc3)cccc12 [LY294002],block,–,block,~1000
